No constants are given. Whether binding was seen depends on the method and setting. Some entries that bind do so weakly or less than the wild type. For some assays here: Tags and fused reporters may be left off the sequences shown.
T1: Syp1 (S. cerevisiae), P25623
T1 chain: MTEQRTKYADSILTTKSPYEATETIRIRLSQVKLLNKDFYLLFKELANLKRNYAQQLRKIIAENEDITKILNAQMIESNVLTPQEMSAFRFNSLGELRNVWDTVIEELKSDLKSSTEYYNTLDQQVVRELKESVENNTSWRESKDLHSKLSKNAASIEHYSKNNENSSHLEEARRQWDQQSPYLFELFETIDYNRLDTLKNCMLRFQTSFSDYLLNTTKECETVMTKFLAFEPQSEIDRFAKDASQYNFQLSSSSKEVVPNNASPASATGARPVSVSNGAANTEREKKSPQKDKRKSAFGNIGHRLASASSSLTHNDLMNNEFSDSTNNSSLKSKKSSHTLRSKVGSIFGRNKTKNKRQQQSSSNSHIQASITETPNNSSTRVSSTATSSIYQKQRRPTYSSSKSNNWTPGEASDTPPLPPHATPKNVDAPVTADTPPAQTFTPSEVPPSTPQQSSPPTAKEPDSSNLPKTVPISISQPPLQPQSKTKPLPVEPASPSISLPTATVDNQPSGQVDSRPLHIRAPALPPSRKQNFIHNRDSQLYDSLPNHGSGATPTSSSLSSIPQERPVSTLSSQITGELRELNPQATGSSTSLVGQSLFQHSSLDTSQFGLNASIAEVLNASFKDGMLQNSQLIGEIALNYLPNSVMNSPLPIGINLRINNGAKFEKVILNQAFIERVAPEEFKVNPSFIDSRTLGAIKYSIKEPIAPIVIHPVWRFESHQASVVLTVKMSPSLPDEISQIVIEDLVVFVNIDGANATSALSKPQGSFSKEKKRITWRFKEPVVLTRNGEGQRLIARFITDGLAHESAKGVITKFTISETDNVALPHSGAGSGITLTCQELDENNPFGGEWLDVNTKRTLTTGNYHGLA

T2: Sla1 (S. cerevisiae), P32790
T2 chain: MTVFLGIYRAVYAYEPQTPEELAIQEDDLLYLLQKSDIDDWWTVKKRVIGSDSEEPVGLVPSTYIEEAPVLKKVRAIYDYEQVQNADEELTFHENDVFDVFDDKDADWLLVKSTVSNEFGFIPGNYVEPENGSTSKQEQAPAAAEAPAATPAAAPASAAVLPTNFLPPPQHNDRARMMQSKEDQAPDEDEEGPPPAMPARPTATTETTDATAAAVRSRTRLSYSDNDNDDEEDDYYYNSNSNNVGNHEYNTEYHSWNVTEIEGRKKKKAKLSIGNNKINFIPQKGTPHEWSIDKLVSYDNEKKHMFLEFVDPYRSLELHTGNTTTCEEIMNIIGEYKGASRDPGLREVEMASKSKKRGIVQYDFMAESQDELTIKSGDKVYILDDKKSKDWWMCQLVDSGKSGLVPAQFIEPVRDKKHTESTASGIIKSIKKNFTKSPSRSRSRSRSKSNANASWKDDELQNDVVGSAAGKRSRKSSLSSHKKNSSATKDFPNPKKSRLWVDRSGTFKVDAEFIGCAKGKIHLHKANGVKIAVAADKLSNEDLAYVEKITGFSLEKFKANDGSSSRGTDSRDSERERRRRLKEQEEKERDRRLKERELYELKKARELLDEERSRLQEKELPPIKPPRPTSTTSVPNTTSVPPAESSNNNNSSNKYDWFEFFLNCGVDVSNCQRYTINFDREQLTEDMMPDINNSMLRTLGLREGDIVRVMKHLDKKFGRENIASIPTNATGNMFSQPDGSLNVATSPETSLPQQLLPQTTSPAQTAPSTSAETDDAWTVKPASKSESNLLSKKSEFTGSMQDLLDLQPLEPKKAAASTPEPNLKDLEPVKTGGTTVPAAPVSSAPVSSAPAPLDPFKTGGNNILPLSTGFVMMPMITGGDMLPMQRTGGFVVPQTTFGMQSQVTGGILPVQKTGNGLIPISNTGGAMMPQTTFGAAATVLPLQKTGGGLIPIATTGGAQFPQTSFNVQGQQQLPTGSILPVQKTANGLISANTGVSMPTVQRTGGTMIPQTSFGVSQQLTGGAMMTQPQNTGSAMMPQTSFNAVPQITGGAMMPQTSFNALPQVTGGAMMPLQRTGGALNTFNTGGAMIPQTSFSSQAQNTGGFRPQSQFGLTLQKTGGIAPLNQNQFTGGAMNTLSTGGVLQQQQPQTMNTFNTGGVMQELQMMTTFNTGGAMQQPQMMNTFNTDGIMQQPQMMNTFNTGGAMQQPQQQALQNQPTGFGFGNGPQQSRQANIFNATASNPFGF

T3: Ede1Δ591–1381-TAP (S. cerevisiae) (UniProt P34216)
T3 sequence: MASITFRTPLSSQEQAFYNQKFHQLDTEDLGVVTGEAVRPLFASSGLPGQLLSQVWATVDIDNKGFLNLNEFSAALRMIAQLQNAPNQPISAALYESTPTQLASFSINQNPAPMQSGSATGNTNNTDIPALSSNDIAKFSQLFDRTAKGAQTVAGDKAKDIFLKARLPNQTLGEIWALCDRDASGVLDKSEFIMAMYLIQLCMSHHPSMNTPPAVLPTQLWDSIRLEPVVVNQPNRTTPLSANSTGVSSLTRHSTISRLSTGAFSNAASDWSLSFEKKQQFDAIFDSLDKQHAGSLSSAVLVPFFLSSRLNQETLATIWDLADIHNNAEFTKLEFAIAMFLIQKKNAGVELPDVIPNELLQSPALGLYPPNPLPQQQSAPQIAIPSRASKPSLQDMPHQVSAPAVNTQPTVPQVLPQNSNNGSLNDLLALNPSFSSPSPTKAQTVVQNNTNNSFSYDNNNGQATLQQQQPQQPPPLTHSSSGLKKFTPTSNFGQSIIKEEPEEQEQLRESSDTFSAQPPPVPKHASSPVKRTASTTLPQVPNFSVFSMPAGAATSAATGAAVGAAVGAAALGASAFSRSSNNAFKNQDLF

B1: Syp1 (natural protein, S. cerevisiae, UniProt P25623 1-870, looked up)
chain: MTEQRTKYADSILTTKSPYEATETIRIRLSQVKLLNKDFYLLFKELANLKRNYAQQLRKIIAENEDITKILNAQMIESNVLTPQEMSAFRFNSLGELRNVWDTVIEELKSDLKSSTEYYNTLDQQVVRELKESVENNTSWRESKDLHSKLSKNAASIEHYSKNNENSSHLEEARRQWDQQSPYLFELFETIDYNRLDTLKNCMLRFQTSFSDYLLNTTKECETVMTKFLAFEPQSEIDRFAKDASQYNFQLSSSSKEVVPNNASPASATGARPVSVSNGAANTEREKKSPQKDKRKSAFGNIGHRLASASSSLTHNDLMNNEFSDSTNNSSLKSKKSSHTLRSKVGSIFGRNKTKNKRQQQSSSNSHIQASITETPNNSSTRVSSTATSSIYQKQRRPTYSSSKSNNWTPGEASDTPPLPPHATPKNVDAPVTADTPPAQTFTPSEVPPSTPQQSSPPTAKEPDSSNLPKTVPISISQPPLQPQSKTKPLPVEPASPSISLPTATVDNQPSGQVDSRPLHIRAPALPPSRKQNFIHNRDSQLYDSLPNHGSGATPTSSSLSSIPQERPVSTLSSQITGELRELNPQATGSSTSLVGQSLFQHSSLDTSQFGLNASIAEVLNASFKDGMLQNSQLIGEIALNYLPNSVMNSPLPIGINLRINNGAKFEKVILNQAFIERVAPEEFKVNPSFIDSRTLGAIKYSIKEPIAPIVIHPVWRFESHQASVVLTVKMSPSLPDEISQIVIEDLVVFVNIDGANATSALSKPQGSFSKEKKRITWRFKEPVVLTRNGEGQRLIARFITDGLAHESAKGVITKFTISETDNVALPHSGAGSGITLTCQELDENNPFGGEWLDVNTKRTLTTGNYHGLA
notes: Syp1, S. cerevisiae endocytic adaptor; Each copy carries one of the two tags; also called Syp1-3myeGFP; source: S. cerevisiae, chromosomally tagged at the endogenous locus, in living cells; not shown: 3myeGFP, C-terminal, kept; 3mCherry, C-terminal, kept
B2: Ede1 (Ede1-TAP / Ede1-GFP) (protein, UniProt P34216 1-1381)
chain: MASITFRTPLSSQEQAFYNQKFHQLDTEDLGVVTGEAVRPLFASSGLPGQLLSQVWATVDIDNKGFLNLNEFSAALRMIAQLQNAPNQPISAALYESTPTQLASFSINQNPAPMQSGSATGNTNNTDIPALSSNDIAKFSQLFDRTAKGAQTVAGDKAKDIFLKARLPNQTLGEIWALCDRDASGVLDKSEFIMAMYLIQLCMSHHPSMNTPPAVLPTQLWDSIRLEPVVVNQPNRTTPLSANSTGVSSLTRHSTISRLSTGAFSNAASDWSLSFEKKQQFDAIFDSLDKQHAGSLSSAVLVPFFLSSRLNQETLATIWDLADIHNNAEFTKLEFAIAMFLIQKKNAGVELPDVIPNELLQSPALGLYPPNPLPQQQSAPQIAIPSRASKPSLQDMPHQVSAPAVNTQPTVPQVLPQNSNNGSLNDLLALNPSFSSPSPTKAQTVVQNNTNNSFSYDNNNGQATLQQQQPQQPPPLTHSSSGLKKFTPTSNFGQSIIKEEPEEQEQLRESSDTFSAQPPPVPKHASSPVKRTASTTLPQVPNFSVFSMPAGAATSAATGAAVGAAVGAAALGASAFSRSSNNAFKNQDLFADGEASAQLSNATTEMANLSNQVNSLSKQASITNDKKSRATQELKRVTEMKNSIQIKLNNLRSTHDQNVKQTEQLEAQVLQVNKENETLAQQLAVSEANYHAAESKLNELTTDLQESQTKNAELKEQITNLNSMTASLQSQLNEKQQQVKQERSMVDVNSKQLELNQVTVANLQKEIDGLGEKISVYLTKQKELNDYQKTVEEQHAQLQAKYQDLSNKDTDLTDREKQLEERNRQIEEQENLYHQHVSKLQEMFDDLSQRKASFEKADQELKERNIEYANNVRELSERQMNLAMGQLPEDAKDIIAKSASNTDTTTKEATSRGNVHEDTVSKFVETTVENSNLNVNRVKDDEEKTERTESDVFDRDVPTLGSQSDSENANTNNGTQSGNETANPNLTETLSDRFDGDLNEYGIPRSQSLTSSVANNAPQSVRDDVELPETLEERDTINNTANRDNTGNLSHIPGEWEATPATASTDVLSNETTEVIEDGSTTKRANSNEDGESVSSIQESPKISAQPKAKTINEEFPPIQELHIDESDSSSSDDDEFEDTREIPSATVKTLQTPYNAQPTSSLEIHTEQVIKYPAPGTSPSHNEGNSKKASTNSILPVKDEFDDEFAGLEQAAVEEDNGADSESEFENVANAGSMEQFETIDHKDLDDELQMNAFTGTLTSSSNPTIPKPQVQQQSTSDPAQVSNDEWDEIFAGFGNSKAEPTKVATPSIPQQPIPLKNDPIVDASLSKGPIVNRGVATTPKSLAVEELSGMGFTEEEAHNALEKCNWDLEAATNFLLDSA

Tests used:
[1] = biological target: T1, Syp1 (S. cerevisiae), P25623; assay: condition: 1000 nM (only Kdeff-values < 1000 nM are shown); fluorescence cross-correlation spectroscopy (FCCS); in the cytoplasm of living yeast cells; first-named protein green (3myeGFP or 1myeGFP; eGFP for Don1), second red (3mCherry); self-interaction in diploid strains with one allele of each colour; apparent or effective KD (Kdeff) from single-cell measurements; only Kdeff values < 1000 nM are shown; values for …; conditions: remark: other sources report otherwise
[2] = biological target: T2, Sla1 (S. cerevisiae), P32790; assay: as above; conditions: remark: other sources report otherwise
[3] = biological target: T1, Syp1 (S. cerevisiae), P25623; assay: condition: detection range of FCCS: apparent KD up to ~1 μM; fluorescence cross-correlation spectroscopy (FCCS); self-interaction: living diploid yeast cells with one allele fused to (3)myeGFP and one to (3)mCherry, cytoplasm; apparent (effective) KD, to be taken as the upper limit since complexes of one colour are not seen; conditions: remark: other sources report otherwise
[4] = biological target: T3, Ede1Δ591–1381-TAP (S. cerevisiae); assay: tandem affinity purification (TAP) with immunoblot; diploid strain with a TAP-tagged and a GFP-tagged allele; purified proteins on SDS–PAGE, immunoblotted with α-GFP and α-TAP
[5] = biological target: Ede1 (Ede1-TAP / Ede1-GFP) (S. cerevisiae) (UniProt P34216); assay: as above

| Binder | binding [1] | binding [2] | binding [3] | binding [4] | binding [5] |
| --- | --- | --- | --- | --- | --- |
| B1 | no binding | no binding | no binding |  |  |
| B2 |  |  |  | no binding | binds |

From publication PMC4299599, “Quantification of cytosolic interactions identifies Ede1 oligomers as key organizers of endocytosis” (Molecular Systems Biology, 2014)
